Experimental data: paper PMC10143413
Results are given in words; binding and its absence hold for the method and conditions named. Binding seen in cells or lysates may run through a third protein. A yes stands for co-enrichment or nearness to the bait. Other partners may have been found.

Amino acid sequences for entries named in this document (tags omitted). Residues count along the entry.
UniProt P11974: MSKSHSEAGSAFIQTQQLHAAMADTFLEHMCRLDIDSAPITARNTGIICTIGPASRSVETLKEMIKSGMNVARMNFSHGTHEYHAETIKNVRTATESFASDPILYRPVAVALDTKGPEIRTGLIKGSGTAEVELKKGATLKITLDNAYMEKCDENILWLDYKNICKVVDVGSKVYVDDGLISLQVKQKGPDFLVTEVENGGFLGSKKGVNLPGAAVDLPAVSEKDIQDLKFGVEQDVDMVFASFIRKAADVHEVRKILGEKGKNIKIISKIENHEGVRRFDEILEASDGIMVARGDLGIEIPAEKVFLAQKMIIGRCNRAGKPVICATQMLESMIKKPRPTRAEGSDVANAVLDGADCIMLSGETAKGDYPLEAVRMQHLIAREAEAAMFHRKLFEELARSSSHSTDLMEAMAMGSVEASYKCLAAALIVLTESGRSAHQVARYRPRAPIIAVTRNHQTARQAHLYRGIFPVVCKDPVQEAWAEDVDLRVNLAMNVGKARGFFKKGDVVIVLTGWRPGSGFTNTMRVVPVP
UniProt P63101: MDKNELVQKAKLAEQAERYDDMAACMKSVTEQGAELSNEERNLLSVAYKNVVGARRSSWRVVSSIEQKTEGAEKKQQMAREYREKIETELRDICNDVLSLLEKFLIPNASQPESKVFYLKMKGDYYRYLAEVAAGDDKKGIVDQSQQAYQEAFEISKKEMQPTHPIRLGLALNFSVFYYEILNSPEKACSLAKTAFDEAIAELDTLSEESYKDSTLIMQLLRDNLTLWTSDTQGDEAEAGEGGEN
UniProt P68372: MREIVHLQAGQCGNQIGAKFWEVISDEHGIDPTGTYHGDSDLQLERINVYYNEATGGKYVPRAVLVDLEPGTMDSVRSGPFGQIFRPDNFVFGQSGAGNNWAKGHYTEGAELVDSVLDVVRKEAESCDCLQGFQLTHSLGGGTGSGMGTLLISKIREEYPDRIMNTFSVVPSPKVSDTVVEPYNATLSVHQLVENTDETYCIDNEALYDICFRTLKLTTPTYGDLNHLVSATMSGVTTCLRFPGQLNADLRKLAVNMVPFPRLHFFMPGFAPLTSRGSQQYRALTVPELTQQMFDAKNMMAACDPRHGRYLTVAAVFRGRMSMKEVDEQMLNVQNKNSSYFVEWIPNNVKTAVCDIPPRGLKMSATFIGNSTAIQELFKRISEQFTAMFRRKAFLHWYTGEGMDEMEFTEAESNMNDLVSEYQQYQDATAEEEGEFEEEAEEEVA
UniProt Q9QUM9: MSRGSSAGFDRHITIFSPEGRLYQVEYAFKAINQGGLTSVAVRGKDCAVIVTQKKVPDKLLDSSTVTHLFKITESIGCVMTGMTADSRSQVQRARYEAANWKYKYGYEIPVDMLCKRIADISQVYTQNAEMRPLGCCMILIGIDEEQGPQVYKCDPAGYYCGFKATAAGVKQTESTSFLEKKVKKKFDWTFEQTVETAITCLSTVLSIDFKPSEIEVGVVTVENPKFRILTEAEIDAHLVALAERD
UniProt P57780: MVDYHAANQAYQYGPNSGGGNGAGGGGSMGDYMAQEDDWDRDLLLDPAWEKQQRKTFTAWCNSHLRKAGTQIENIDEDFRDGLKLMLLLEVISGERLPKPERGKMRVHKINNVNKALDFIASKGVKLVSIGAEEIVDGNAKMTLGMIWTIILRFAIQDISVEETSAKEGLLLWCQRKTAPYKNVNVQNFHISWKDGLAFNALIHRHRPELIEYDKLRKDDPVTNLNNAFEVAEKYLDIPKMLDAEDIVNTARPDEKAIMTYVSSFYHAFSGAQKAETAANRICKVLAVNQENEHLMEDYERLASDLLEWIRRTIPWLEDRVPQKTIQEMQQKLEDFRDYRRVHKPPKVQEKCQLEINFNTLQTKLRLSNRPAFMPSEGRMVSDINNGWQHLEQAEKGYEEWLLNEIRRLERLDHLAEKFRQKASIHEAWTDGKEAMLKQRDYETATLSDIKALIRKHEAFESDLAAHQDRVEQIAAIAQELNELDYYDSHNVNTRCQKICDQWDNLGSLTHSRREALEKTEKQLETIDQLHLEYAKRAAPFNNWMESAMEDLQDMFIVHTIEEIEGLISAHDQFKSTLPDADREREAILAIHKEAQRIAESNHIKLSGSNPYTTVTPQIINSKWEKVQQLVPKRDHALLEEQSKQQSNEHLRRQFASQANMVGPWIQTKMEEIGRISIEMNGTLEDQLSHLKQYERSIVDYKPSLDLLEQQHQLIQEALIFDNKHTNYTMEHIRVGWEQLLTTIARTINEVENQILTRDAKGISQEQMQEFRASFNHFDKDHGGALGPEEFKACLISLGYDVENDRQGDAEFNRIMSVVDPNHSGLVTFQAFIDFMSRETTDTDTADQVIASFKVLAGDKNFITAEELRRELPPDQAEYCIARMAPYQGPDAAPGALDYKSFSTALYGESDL
UniProt Q61937: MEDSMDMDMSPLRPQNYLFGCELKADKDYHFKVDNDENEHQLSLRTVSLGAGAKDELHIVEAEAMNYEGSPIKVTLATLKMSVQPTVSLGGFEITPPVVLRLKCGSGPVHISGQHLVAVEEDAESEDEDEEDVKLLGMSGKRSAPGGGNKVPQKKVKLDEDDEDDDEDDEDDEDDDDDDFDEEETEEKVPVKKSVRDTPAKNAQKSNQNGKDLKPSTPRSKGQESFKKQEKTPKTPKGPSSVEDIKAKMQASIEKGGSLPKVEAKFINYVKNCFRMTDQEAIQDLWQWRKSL
UniProt P63242: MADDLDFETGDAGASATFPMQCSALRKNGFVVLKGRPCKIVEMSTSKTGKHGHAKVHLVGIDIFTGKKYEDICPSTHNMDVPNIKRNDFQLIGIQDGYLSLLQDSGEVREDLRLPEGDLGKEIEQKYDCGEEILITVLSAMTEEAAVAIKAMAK
UniProt P63038, residues 27-573: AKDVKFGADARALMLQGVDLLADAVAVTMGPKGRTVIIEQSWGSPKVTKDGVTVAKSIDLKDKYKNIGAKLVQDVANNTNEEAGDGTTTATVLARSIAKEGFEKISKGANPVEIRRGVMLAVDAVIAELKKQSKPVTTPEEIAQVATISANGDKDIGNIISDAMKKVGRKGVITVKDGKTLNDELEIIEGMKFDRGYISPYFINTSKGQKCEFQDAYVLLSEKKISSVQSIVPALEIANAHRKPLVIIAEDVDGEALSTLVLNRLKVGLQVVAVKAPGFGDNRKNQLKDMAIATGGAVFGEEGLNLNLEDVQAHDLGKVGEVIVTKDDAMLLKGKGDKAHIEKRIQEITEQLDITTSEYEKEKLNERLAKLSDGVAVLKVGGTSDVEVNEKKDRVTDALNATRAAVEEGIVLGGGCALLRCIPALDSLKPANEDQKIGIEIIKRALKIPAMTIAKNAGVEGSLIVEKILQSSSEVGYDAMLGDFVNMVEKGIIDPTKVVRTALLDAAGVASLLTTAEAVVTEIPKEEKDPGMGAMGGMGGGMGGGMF

molecular target: Pyruvate kinase PKM1, purified from rabbit skeletal muscle (rabbit) (UniProt P11974); assay: affinity purification with mass spectrometry; rabbit muscle PKM1 immobilised on CNBr-activated Sepharose 4B; cleared Triton X-100 lysate of mouse brain homogenate (6 mg/mL protein) in 0.05 M potassium phosphate pH 7.4, overnight at 4 °C; washed with 100 volumes of buffer; eluted with 0.1 M glycine pH 2.8, 3 M NaCl; LC-MS/MS; only the target purified

binding, binds:
14-3-3 protein zeta/delta (mouse brain) (from UniProt P63101 1-245)
Tubulin beta-4B chain (mouse brain) (from UniProt P68372 1-445)
Proteasome subunit alpha type-6 (mouse brain) (from UniProt Q9QUM9 1-246)
Heterogeneous nuclear ribonucleoprotein K (mouse brain) (from UniProt P61979 1-463)
Alpha-actinin-4 (mouse brain) (from UniProt P57780 1-912)
Nucleophosmin (mouse brain) (from UniProt Q61937 1-292)
Eukaryotic translation initiation factor 5A-1 (mouse brain) (from UniProt P63242 1-154)
60 kDa heat shock protein, mitochondrial (mouse brain) (from UniProt P63038 27-573)
